According to PubChem BioAssay AID651582 (Sanford-Burnham Center for Chemical Genomics, 2012):
The other results are listed elsewhere or left out.

Assay: TAG lipid buildup reduction in H9c2 cells – cell-based, uHTS, fluorescence, primary screen (AID 651582)
Conditions: Nile Red lipid (TAG) fluorescence, DAPI nuclei count viability, at 12.5 µM, cells loaded with 200 µM oleic acid
`O=P(Nc1ccccn1)(c1ccc(Br)cc1)c1ccc(Br)cc1` gave a DAPI activity (viability loss) of 2.74%.
